This note sets out measurements from ChEMBL document CHEMBL1141364, “Design and synthesis of indane-ureido-thioisobutyric acids: A novel class of PPARalpha agonists” (Bioorg Med Chem Lett, 2007).

The target of this test is T1, Peroxisome proliferator-activated receptor gamma (Homo sapiens, UniProt P37231).
T1 sequence (P37231 whole entry): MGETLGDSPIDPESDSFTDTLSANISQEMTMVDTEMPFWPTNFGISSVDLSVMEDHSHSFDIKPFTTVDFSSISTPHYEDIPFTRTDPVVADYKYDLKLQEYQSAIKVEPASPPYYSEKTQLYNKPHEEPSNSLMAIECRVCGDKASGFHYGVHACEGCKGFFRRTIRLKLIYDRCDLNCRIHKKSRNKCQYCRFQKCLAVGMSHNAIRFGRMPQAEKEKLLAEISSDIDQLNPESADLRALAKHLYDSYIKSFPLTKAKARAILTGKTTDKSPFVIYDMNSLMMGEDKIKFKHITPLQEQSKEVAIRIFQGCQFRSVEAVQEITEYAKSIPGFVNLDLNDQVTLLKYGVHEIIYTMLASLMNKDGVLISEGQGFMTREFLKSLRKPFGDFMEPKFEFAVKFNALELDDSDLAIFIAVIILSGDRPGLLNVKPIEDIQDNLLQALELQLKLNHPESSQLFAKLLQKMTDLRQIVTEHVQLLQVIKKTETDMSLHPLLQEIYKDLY

SMILES strings stand for the structures.

In the case of `CCCCCCCN(CCc1ccc(SC(C)(C)C(=O)O)cc1)C(=O)Nc1ccc(F)cc1F` [GSK-9578], a half-maximal response (EC50) required 500 nM.
